These are yes or no findings as the source states them, for the method shown. Binding seen in cells or lysates may run through a third protein. Some entries that bind do so weakly or less than the wild type.
What was measured:
[1] = biological target: MUC16^c57-114-pFUSE-hIgG1-Fc2 fusion protein (human); assay: co-immunoprecipitation of purified proteins on Protein A/G beads, immunoblot
[2] = biological target: MUC16^c57-114-pFUSE-hIgG1-Fc2 fusion protein (human); assay: co-immunoprecipitation on Protein A/G PLUS agarose beads (1 hr at 4 °C) through the Fc of MUC16 pFUSE, blot Poly-anti-LGALS3
[3] = biological target: MUC16^c57-114-pFUSE-hIgG1-Fc2 fusion protein (human); assay: co-precipitation on preblocked protein A/G PLUS agarose beads (1 hr at 4 °C), western blot with anti-DDK clone 4C5

Sequences of proteins named here, by UniProt entry; tags and fusion partners are left off.
UniProt P17931: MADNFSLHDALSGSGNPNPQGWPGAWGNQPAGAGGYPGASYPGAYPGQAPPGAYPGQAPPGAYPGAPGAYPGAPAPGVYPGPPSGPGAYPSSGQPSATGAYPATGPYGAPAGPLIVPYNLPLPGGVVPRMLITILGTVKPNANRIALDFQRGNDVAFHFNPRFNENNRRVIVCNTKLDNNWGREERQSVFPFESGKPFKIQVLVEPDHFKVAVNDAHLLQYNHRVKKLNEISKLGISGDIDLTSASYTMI

Measured: binding

LGALS3Myc-DDK (from UniProt P17931 1-250)
binds: all assays above

From patent US20180112008A1 (Memorial Sloan Kettering, published 2018)
